Measurements reported in PubChem BioAssay AID540256 (National Center for Advancing Translational Sciences (NCATS), 2011).
In all, about 300,000 compounds went through this assay and about 3,700 (1.2%) were called active. Inconclusive results, whose numbers are uncertain, are shown with a selection of clear calls. The call rests on the fitted dose curve; tested in HEK293 cells. A potency beside an inconclusive call is a rough fit, not a confirmed value.

Assay: qHTS for Inhibitors of binding or entry into cells for Lassa Virus; further: nearly all actives have a fitted effect of over 50% in size
Conditions: Lassa virus pseudotype entry inhibition, cell reporter; series mostly up to 37.9 µM
Potency means the concentration at half of the fitted maximal effect.

Compound | Potency
COCCNC(=O)CSc1nc2cc3c(cc2c(=O)n1CCCC(=O)NCCc1ccc(OC)c(OC)c1)OCO3 | inconclusive: 0.501 µM [inhibitor, single point]
Cc1ccc(S(=O)(=O)N2CCC(C(=O)Nc3nnc(-c4ccco4)s3)CC2)cc1 | inactive
CCC(CC)C(=O)Nc1nnc(SCc2cc(=O)c3ccccc3[nH]2)s1 | inactive
CCCCOc1ncnc2c1[nH]c1ccc(F)cc12 | inconclusive: 29.1 µM [inhibitor, single point]
CC(=O)Nc1ccc(NC(=S)NC(=O)c2ccc([N+](=O)[O-])cc2)cc1 | inactive
CCCCC1S/C(=N/N=C/c2cccs2)NC1=O (centres undefined) | inconclusive: 12.6 µM [inhibitor, single point]
CCc1c(O)nc(SCC(=O)Nc2ccc(OC)cc2)n(C2CCCCC2)c1=O | inconclusive: 6.51 µM [inhibitor, partial curve, poor fit]
Cc1ccc(C(=O)Oc2ccc(C(=O)COC(=O)C3CC(=O)N(Cc4ccco4)C3)cc2)cc1 (centres undefined) | inactive
CCC(C)N(C(=O)CSc1nc(-c2cccs2)nc2ccccc12)C1CCS(=O)(=O)C1 (centres undefined) | inconclusive: 11.2 µM [inhibitor, partial curve]
COc1cc(OC)cc(C(=O)NC(C(=O)N2CCc3ccccc3C2)C(C)C)c1 (centres undefined) | inconclusive: 14.1 µM [inhibitor, partial curve, poor fit]
CC12CC3CC(C)(C1)CC(C(=O)NCc1cccnc1)(C3)C2 | inactive
O=C(CN1CCCCC1)Nc1ccc(NC(=O)c2ccc(Cl)cc2)cc1Cl | inconclusive: 6.51 µM [inhibitor, partial curve, poor fit]
CC(C)[C@H](NC(=O)c1ccccc1)C(=O)OCc1nc2scc(-c3ccccc3)c2c(=O)[nH]1 | inconclusive: 29.1 µM [inhibitor, single point]
Cc1cccc(OCC(=O)Nc2ccc(N3CCN(C(=O)c4ccccc4)CC3)cc2)c1C | inactive
COC(=O)c1cc(C(=O)Nc2nc3ccccc3[nH]2)cc([N+](=O)[O-])c1 | inactive
Cc1ccc(C(=O)C[n+]2ccc(Cc3ccccc3)cc2)cc1 | inconclusive: 20 µM [inhibitor, single point]
Nc1cccc(N=Cc2c(O)n(Cc3ccc(F)cc3)c(=O)[nH]c2=O)c1 | inconclusive: 20 µM [inhibitor, partial curve, poor fit]
Cc1ccc(SC(=O)c2c(C)noc2-c2cc(C)on2)cc1 | inactive
CCC(C)NS(=O)(=O)c1ccc(N2CCCCS2(=O)=O)cc1 (centres undefined) | inconclusive: 35.5 µM [activator, single point]
Cc1oc(-c2ccc(-c3ccccc3)cc2)nc1CN(CCO)C(C)C | inconclusive: 25.1 µM [inhibitor, single point]
Cc1cccc(/C=N/NC(=O)c2ccc(Br)cc2)c1 | inconclusive: 6.31 µM [activator, single point]
Cc1nn2c(N3CCN(C)CC3)cc(C(C)(C)C)nc2c1-c1ccccc1 | inconclusive: 11.2 µM [inhibitor, single point]
CN(C)S(=O)(=O)N(CC(=O)Nc1ccc(Br)cc1F)c1ccccc1 | inactive

Compound | Potency
O=C(Nc1nccc(-c2cccs2)n1)c1ccccc1Cl | inconclusive: 7.08 µM [activator, partial curve, poor fit]
Oc1ccc(C=NNC(=S)Nc2cccnc2)nc1 | active: 10 µM
COc1ccc(CN(C)CC2CCCN(CCc3ccccc3C)C2)cc1O (centres undefined) | inconclusive: 3.16 µM [inhibitor, partial curve, poor fit]
Cc1cccnc1NC(=O)c1ccc2c(c1)OCCO2 | inconclusive: 6.31 µM [activator, single point]
O=C(Nc1cc(SCCO)cc([N+](=O)[O-])c1)c1ccc(Br)o1 | inconclusive: 32.6 µM [inhibitor, partial curve, poor fit]
Cc1sc(NC(=O)CN2CCCC2)nc1-c1ccc2c(c1)CCN2C(=O)c1ccc(F)cc1 | inconclusive: 12.6 µM [inhibitor, partial curve]
Nc1nc(-c2ccccn2)nc(N)c1Cc1ccccc1F | inconclusive: 35.5 µM [inhibitor, single point]
COc1ccc(C(=O)CC(=O)C(=O)Nc2cccc(C(C)=O)c2)cc1 | inactive
COc1ccc(C(=O)N/N=C(\C)c2ccc(NC(=O)Cc3ccccc3)cc2)c(OC)c1 | inactive
COc1cccc(OCCNc2cc(N3CCOCC3)ccc2[N+](=O)[O-])c1 | inactive
CCN(CC)CC(O)Cn1c2ccccc2c2ccccc21 (centres undefined) | inconclusive: 20 µM [inhibitor, partial curve, poor fit]
CN(c1cccc(Cl)c1)S(=O)(=O)c1cccc(C(=O)Nc2ccc3c(c2)CCC3)c1 | inconclusive: 17.8 µM [inhibitor, partial curve, poor fit]
O=C(c1cc(-c2ccccc2Cl)on1)N1CCCC1 | inconclusive: 14.1 µM [inhibitor, single point]
CC(C)(C)c1cc(P(=O)(c2ccccc2)c2ccccc2)ccc1O | inconclusive: 35.5 µM [inhibitor, single point]
CCc1ccc(NC(=O)COC(=O)CC2CCCC2)cc1 | inactive
COc1ccc(-c2oc3ncn(Cc4ccco4)c(=N)c3c2-c2ccc(OC)cc2)cc1 | inconclusive: 35.5 µM [inhibitor, single point]
CCOC(=O)c1c(-c2ccccc2)cn2c(C)cc(C)nc12 | inconclusive: 12.6 µM [inhibitor, partial curve, poor fit]
COc1ccc(NC(=O)CNC(=O)c2ccco2)cc1S(=O)(=O)Nc1cc(C)ccc1Br | inconclusive: 35.5 µM [inhibitor, single point]
COc1cc(NC(C)=O)ccc1-c1cc2ccccc2oc1=O | inconclusive: 3.16 µM [activator, single point]
CCOc1cc(C(=S)N2CCOCC2)ccc1OS(=O)(=O)c1ccc(OC)cc1 | inconclusive: 35.5 µM [inhibitor, partial curve, poor fit]
C=C(C)CN1CCN(S(=O)(=O)c2ccc(C)c(N(C)S(=O)(=O)c3ccc(C)cc3)c2C)CC1 | inconclusive: 15.8 µM [inhibitor, single point]
Cc1oc(-c2ccccc2Cl)nc1CN1C(=O)CN=C(c2ccccc2)c2ccccc21 | inconclusive: 29.1 µM [inhibitor, single point]
CC(C)Oc1cccc(C(=O)NC(=S)NCc2cccnc2)c1 | inconclusive: 6.51 µM [inhibitor, partial curve]

Compound | Potency
O=C(NCc1ccccc1Cl)c1ccc2c(c1)N(Cc1ccccc1)C(=O)c1ccccc1S2 | inactive
CCN(CC)C(=O)CSc1nc2c(c(-c3cccnc3)c1C#N)CCCC2 | inconclusive: 35.5 µM [inhibitor, single point]
Cn1c(-c2ccc(C(=O)c3ccccc3)s2)nc2ccccc21 | inconclusive: 7.94 µM [inhibitor, partial curve, poor fit]
O=S(=O)(c1ccc(F)cc1)N1CCN(CCc2ccccc2)CC1 | inactive
CCOc1ccc(/C=N/NC(=S)Nc2c(C)cccc2C)cc1 | inactive
Cc1ccc(-n2ncc3c2CC(C)(C)CC3NC(=O)Cc2c(C)noc2C)cc1 (centres undefined) | inactive
CCCc1ccc(-c2c(C)sc(N)c2C#N)cc1 | inconclusive: 15.8 µM [inhibitor, single point]
COc1ccc(C(CNC(=O)c2cccc(NS(=O)(=O)c3ccc(C)c(F)c3)c2)N(C)C)cc1 (centres undefined) | inconclusive: 11.2 µM [inhibitor, single point]
N=c1sc2ccccc2n1-c1ccccc1 | inactive
C/C(=N\NC(=S)NCc1ccccc1)C1CCCCC1 | inconclusive: 10 µM [inhibitor, partial curve]
Cc1ccc(C(=O)COC(=O)CNC(=O)Cc2ccccc2)cc1 | inactive
CC1CCCCN1C(=O)c1ccc2c(c1)N(Cc1ccc(Cl)cc1)C(=O)c1ccccc1S2=O (centres undefined) | inconclusive: 25.1 µM [inhibitor, single point]
CCOc1cccc(-c2cc(C(=O)Nc3ccon3)c3ccccc3n2)c1 | inconclusive: 3.16 µM [inhibitor, single point]
CCN(CC)P1(=O)OC(c2cc(OC)c(OC)c(OC)c2)=Nc2c1c(C)nn2-c1ccccc1 (centres undefined) | inactive
COc1cccc(C2=NOC(C(=O)NCc3ccco3)C2)c1 (centres undefined) | inconclusive: 35.5 µM [inhibitor, single point]
Cc1ccc(-n2nc(C)c3c(C)cc(=O)n(CC(=O)Nc4ccc(C(C)C)cc4)c32)cc1 | inconclusive: 25.1 µM [activator, partial curve, poor fit]
Oc1ccc(Nc2nc(-c3ccc(O)cc3)cs2)cc1 | inconclusive: 14.6 µM [inhibitor, single point]
Cc1nnc(N2CCN(c3ccc(Cl)cc3)CC2)c2c1nnn2Cc1ccc(F)cc1 | inactive
CC(C)C(=O)NC1CC(=O)N(c2ccc3c(c2)OCCO3)C1 (centres undefined) | inactive
COc1ccccc1Cn1ccn(CC(=O)Nc2c(C)cc(C)cc2C)c(=O)c1=O | inconclusive: 6.31 µM [inhibitor, single point]
O=Cc1ccc(C(=O)OCC(=O)N2CCCC2)cc1 | inactive
CCOc1ccccc1N1CC(c2nc3ccccc3n2CCCOc2ccccc2)CC1=O (centres undefined) | inconclusive: 20 µM [inhibitor, partial curve, poor fit]
CC(C)N(Cc1ccccc1)C(=O)c1cc2ccc3cccnc3c2[nH]1 | inconclusive: 11.2 µM [inhibitor, single point]

Among those listed so far, two contain a tert-butyl group:
Compound | Potency
Cc1nn2c(N3CCN(C)CC3)cc(C(C)(C)C)nc2c1-c1ccccc1 | inconclusive: 11.2 µM [inhibitor, single point]
CC(C)(C)c1cc(P(=O)(c2ccccc2)c2ccccc2)ccc1O | inconclusive: 35.5 µM [inhibitor, single point]

Looked up above:
Potency, COc1ccc(C(CNC(=O)c2cccc(NS(=O)(=O)c3ccc(C)c(F)c3)c2)N(C)C)cc1 (centres undefined) is entered as inconclusive: 11.2 µM [inhibitor, single point]
Potency, CCOc1cccc(-c2cc(C(=O)Nc3ccon3)c3ccccc3n2)c1 is entered as inconclusive: 3.16 µM [inhibitor, single point]
